17 molecules from patent US10792384B2, “Rolled fibrous structures comprising encapsulated malodor reduction compositions” (The Procter & Gamble Company, priority 2017, dated 2020) can be followed below.

This data set is described as follows: Fragrance Fidelity Index (FFI), expert graders smelling treated fabric swatches against ethyl vanillin reference scale.
Setting [1] is: Conc 10 ppm of test material on fabric swatch.
Setting [2] is: Conc 50 ppm of test material on fabric swatch.
Setting [3] is: test material 10 ppm, 13 μL on swatch, scale 0-3.
Where [4] appears, read: test material 50 ppm, 13 μL on swatch, scale 0-3.

Consider `CC1(C)CCc2ccc(CCC=O)cc21`, for which the FFI under setting [1] turned out to be 0 and the FFI under setting [2] worked out at 0.5. Molecule `CC1CCC2(C(C)C)CC(C)OC2C1` (stereo not drawn) gave an FFI under setting [2] of 0.3.

Take `CCC(=O)OC1CC2C3C=CCC3C1C2(C)C` (stereo not drawn): the FFI is 0 under setting [1] and 0 under setting [2]. As to `O=C1CCC2CCCCC2O1` (stereo not drawn) [3,4,4a,5,6,7,8,8a-octahydrochromen-2-one], the FFI reads like this: under setting [3], 0; under setting [4], 0. As to `CC(C)(C)C1CCCCC1` [4-tert-butyl cyclohexane], the FFI runs as follows: under setting [3], 0; under setting [4], 0.3. `CCCCCCCCCCCCO` [Material 174] gave an FFI under setting [4] of 0.5. For the molecule `CC1(C)CCc2ccc(CCC=O)cc21` [Material 261], the FFI reads like this: under setting [3], 0; under setting [4], 1.3. As to `CC(=O)OC1CC2CC1C1CC=CC21` (stereo not drawn) [Material 281], the FFI stood at 0 under setting [3] and 0.5 under setting [4].

For the molecule `CCCCCCCCCCCC(=O)OCC` [Material 391], under setting [4], the FFI was 0.3. On the same count and under the same terms, the figure for `C=C/C(C)=C\CC=C(C)C` [Material 524] is 0. In the case of `CCC(O)COC1CCCCC1C(C)(C)C` (stereo not drawn) [Material 677], the FFI is 0 under setting [3] and 1.8 under setting [4]. Consider `CC(CCO)CCc1ccccc1` (stereo not drawn) [Material 962], for which the FFI is recorded as 0 under setting [3] and 0.5 under setting [4]. `CCOC(=O)OC1C(C)CCC(C)C1C` (stereo not drawn) [Material 1005] came in with an FFI under setting [4] of 0.5. Consider `COC(=O)OC1CCC=CCCC1` (stereo not drawn) [Material 1139], for which the FFI runs as follows: under setting [3], 0; under setting [4], 1.0.

`C=C1CCC2OC2(C)CCC2C1CC2(C)C` (stereo not drawn) [Material 1148] showed an FFI under setting [4] of 0.5.

Turning to `CC1(C)C2CCC3(C2)C1C(=O)CCC3(C)C` (stereo not drawn) [Material 1149], the FFI is recorded as 0 under setting [3] and 0.8 under setting [4]. In turn, `CCCCCCCCCCCO` [Undecanol] returned an FFI under setting [4] of 0.8.
